Some of the results follow. The main result of the screen is listed elsewhere. These columns were measured beside it and carry no call. Compounds called inactive in the main read-out are mostly missing here. Potencies come from curve fits of mixed quality, noted in brackets.
Assay: qHTS Assay for Lipid Storage Modulators in Drosophila S3 Cells;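 for cell number change: cells counted by Cell Tracker Red CMTPX staining in the red channel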
Conditions: BODIPY lipid droplet fluorescence, 18-24 h; for cell number change: measured here: cell count max response, cells fed with added oleic acid
Outline: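 Drosophila S3 cells got compounds at several concentrations plus oleic acid (400 uM solution). Laser-scanning cytometry with 488 nm excitation read lipid droplets at 500-530 nm and cells at 575-640 nm. Percent activity was relative to 20 uM Triacsin C.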

[1] = measured here: lipid fluorescence (Fed channel) AC50, cells fed with added oleic acid
[2] = measured here: cell number channel AC50, cells fed with added oleic acid

| SMILES | cell number change [%] | AC50 [1] | AC50 [2] |
| --- | --- | --- | --- |
| Cc1ccc(OCC(=O)NNC(=O)CCC(=O)NCc2ccccc2)cc1 | -3.45 | 23.1 µM [falling, single point] | – |
| O=C(COC(=O)/C=C/c1ccco1)Nc1ccccc1 | 86 | – | – |
| CCN(C(=O)Cn1nc(C(=O)O)c2ccccc2c1=O)C1CCCCC1 | – | 0.164 µM [falling, full curve] | – |
| COC(=O)c1cccnc1N1CCN(c2ccccc2F)CC1 | – | 0.231 µM [rising, partial curve, poor fit] | 1.84 µM [rising, partial curve] |
| Nn1c(SCC(=O)Nc2ccc3c(c2)OCCO3)nnc(CCC(=O)O)c1=O | -8.78 | 0.731 µM [rising, single point] | – |
| CCOc1ccc(N(CC(=O)NCc2ccccc2C)S(C)(=O)=O)cc1 | -3.41 | 7.31 µM [rising, partial curve] | – |
| C/C(=N\OC(=O)c1ccc(Cl)c(Cl)c1)c1sc(C)nc1C | -31.7 | 29.1 µM [falling, single point] | – |
| c1ccc(C2=Nc3c(ccc4ccccc34)C(c3ccncc3)=NN2)cc1 | -27.3 | 6.51 µM [falling, single point] | – |
| O=C(NCCCn1ccnc1)c1ccc(Cl)c(S(=O)(=O)N2CCOCC2)c1 | -14.6 | – | – |
| Cc1cc(C(C)(C)C)c(O)c(C(C)(C)C)c1 | -11.4 | 3.26 µM [falling, partial curve] | – |
| O=C(Nc1ccc(N2CCOCC2)cc1)c1cccc(-n2cnnc2)c1 | 11.9 | 0.58 µM [falling, single point] | – |
| C=CCNc1nc(-c2ccc(O)c(C(N)=O)c2)cs1 | 12.9 | 0.00461 µM [falling, full curve, poor fit] | – |
| O=[N+]([O-])c1ncn(Cc2c(Cl)cccc2Cl)n1 | 7.7 | 1.64 µM [falling, partial curve, poor fit] | – |
| Cc1ccc(S(=O)(=O)Nc2ccc(S(=O)(=O)Nc3cc(C)nc(C)n3)cc2)cc1 | -42.3 | 4.11 µM [falling, full curve] | 4.61 µM [falling, full curve] |
| Cc1cc(Nc2ccccc2)n(-c2cccc(Cl)c2)n1 | – | – | 1.16 µM [rising, partial curve] |
| COc1ccc(OCCCN2CCCC(C)C2)cc1 (stereo unspecified) | -90.6 | 18.4 µM [falling, single point] | 29.1 µM [falling, single point] |
| Cn1nnc2cc(NC(=O)Nc3cccc(Cl)c3)ccc21 | – | 20.6 µM [falling, single point] | – |
| CCN(CC)S(=O)(=O)c1ccc(N(C)Cc2cccc(OC)c2OC)nc1 | 8.53 | – | – |
| CC1=NN(c2ccccc2)C(=O)/C1=C\c1cn(-c2ccccc2)nc1C | -1.76 | 0.291 µM [falling, partial curve, poor fit] | 6.51 µM [falling, single point] |
| Cc1ccc(CCNC(=O)C2CCC(CNc3c(N4CCC(C)CC4)c(=O)c3=O)CC2)cc1 (stereo unspecified) | -14.7 | 29.1 µM [rising, single point] | – |

| SMILES | cell number change [%] | AC50 [1] | AC50 [2] |
| --- | --- | --- | --- |
| Cc1cc(C(=O)CCl)c(C)n1-c1cccc(S(=O)(=O)N2CCOCC2)c1 | -0.196 | – | 0.58 µM [falling, single point] |
| CC1CCCCC12NC(=O)N(CC(=O)NC(=O)Nc1ccc3c(c1)OCCO3)C2=O (stereo unspecified) | 49.4 | – | 5.17 µM [rising, single point] |
| CC(OC(=O)c1cnc(Cl)c(Cl)c1)C(=O)NCc1ccccc1 (stereo unspecified) | 2.92 | 13 µM [rising, partial curve, poor fit] | – |
| C/C(NC(=O)c1ccccc1F)=C1\C(=O)C[C@@H]2[C@H]1C2(C)C | -18.4 | – | – |
| O=C(O)Cn1c(=O)cnc2ccccc21 | -11.9 | – | – |
| Cc1onc(-c2ccccc2Cl)c1C(=O)Nc1nnc(-c2ccc(Br)cc2)s1 | -12.7 | 29.1 µM [rising, single point] | – |
| COc1cccc(CNC(=O)COC(=O)c2cccc(S(=O)(=O)N3CCCC3)c2)c1 | -3.1 | – | – |
| CCCCC(=O)Oc1c(S(=O)(=O)c2ccc(C)cc2)c(C)nn1C(C)(C)C | -24.4 | 20.6 µM [falling, single point] | – |
| COCCNCC(=O)Nc1nc(C)cs1 | 60.9 | – | 29.1 µM [rising, single point] |
| Nc1c(N(CCC2=CCCCC2)C(=O)COc2ccc(F)cc2)c(=O)[nH]c(=O)n1Cc1ccccc1 | -66.3 | 3.66 µM [falling, single point] | 7.31 µM [falling, partial curve] |
| COc1ccc(CNc2cccc3[nH]c(C(F)(F)F)nc23)cc1 | -41.7 | 14.6 µM [falling, partial curve] | 25.9 µM [falling, single point] |
| COc1ccc(OC)c2sc(NC(=O)CCSc3ccccc3)nc12 | -1.89 | 0.146 µM [falling, full curve, poor fit] | – |
| O=C(COc1ccccc1Br)NC(=O)NC1CCCC1 | 38.2 | – | 18.4 µM [rising, single point] |
| CC(=O)N(C(C)=O)c1nc(-c2ccccc2)cn1/N=C/c1cccc([N+](=O)[O-])c1 | -40.6 | 0.92 µM [falling, partial curve] | 2.06 µM [falling, partial curve, poor fit] |
| COc1ccccc1/C=C/C(=O)N1CCN(S(=O)(=O)c2cc(C)ccc2C)CC1 | 21 | 0.058 µM [rising, full curve, poor fit] | – |
| COc1ccccc1N1CCN(C(=O)C2CCN(C(=O)c3ccccc3Cl)CC2)CC1 | – | 6.51 µM [rising, partial curve, poor fit] | – |
| COc1cccc(OCCCOc2ccccc2C(C)C)c1 | -14.6 | 6.51 µM [rising, single point] | – |
| COC(=O)c1cc(Br)c(=O)n(CCN(C(C)C)C(C)C)c1 | 12.6 | 29.1 µM [falling, single point] | 0.082 µM [rising, full curve] |
| Nc1ccc(C(=O)N/N=C/c2cn(Cc3cccc(F)c3)c3ccccc23)cc1 | -49 | 29.1 µM [falling, single point] | – |
| Cc1ccc(C(=O)NCCOc2cccc3cccnc23)cc1Cl | 5.39 | 1.3 µM [rising, partial curve] | – |

Five records drawn at random from those above, as already listed:

| SMILES | cell number change [%] | AC50 [1] | AC50 [2] |
| --- | --- | --- | --- |
| COc1cccc(OCCCOc2ccccc2C(C)C)c1 | -14.6 | 6.51 µM [rising, single point] | – |
| Cc1cc(C(C)(C)C)c(O)c(C(C)(C)C)c1 | -11.4 | 3.26 µM [falling, partial curve] | – |
| O=C(COC(=O)/C=C/c1ccco1)Nc1ccccc1 | 86 | – | – |
| Cc1cc(C(=O)CCl)c(C)n1-c1cccc(S(=O)(=O)N2CCOCC2)c1 | -0.196 | – | 0.58 µM [falling, single point] |
| C=CCNc1nc(-c2ccc(O)c(C(N)=O)c2)cs1 | 12.9 | 0.00461 µM [falling, full curve, poor fit] | – |

(listing goes on)

| SMILES | cell number change [%] | AC50 [1] | AC50 [2] |
| --- | --- | --- | --- |
| CCCC1=Nc2cc(C(=O)NCCCN3CCN(C)CC3)ccc2Sc2ccccc21 | -0.763 | 0.103 µM [rising, full curve, poor fit] | – |
| CCOC(=O)C1CCCN(C(=O)c2cc(-c3ccccc3)on2)C1 (stereo unspecified) | 7.98 | 2.59 µM [falling, full curve] | – |
| CCc1ccc2c(c1)C(=O)c1ccccc1C2=O | 15 | 4.61 µM [rising, single point] | – |
| CCOc1ccc(OCC)c(NC(=O)CN(C)S(=O)(=O)c2cnc[nH]2)c1 | -4.31 | – | 6.51 µM [rising, partial curve, poor fit] |
| CCOC(=O)Cc1csc(NC(=O)/C=C/c2cccc(Br)c2)n1 | -14.2 | – | – |
| O=C(Nc1cccc(Cl)c1)c1cc(S(=O)(=O)NCCc2ccc(Cl)cc2)ccc1F | -28.9 | 29.1 µM [falling, single point] | – |
| CCOc1ccc(NC(=S)N(CCc2c(C)[nH]c3ccccc23)Cc2ccco2)cc1 | -6.26 | 0.517 µM [rising, partial curve, poor fit] | – |
| CCOC(=O)C(NCc1ccccc1OC)(NC(C)=O)C(F)(F)F (stereo unspecified) | -170 | – | 29.1 µM [falling, single point] |
| O=[N+]([O-])c1ccc2[nH]c3c(c2c1)CCCC3O (stereo unspecified) | 28 | – | – |
| O=C(O)C1CCCN(S(=O)(=O)c2ccc3c(c2)OCCO3)C1 (stereo unspecified) | 30.6 | 0.231 µM [rising, full curve, poor fit] | 0.0651 µM [rising, full curve, poor fit] |
| CS(=O)(=O)c1ccc(Cl)c(NC(=O)Cc2c(F)cccc2Cl)c1 | -42.6 | 5.17 µM [falling, partial curve] | – |
| CCOC(=O)c1[nH]c(C)c(/C(O)=C2\C(=O)C(=O)N(CCN(C)C)C2c2cccc(OC)c2OC)c1C (stereo unspecified) | -27.1 | – | – |
| CN(C)S(=O)(=O)c1cccc(NC(=O)CCCc2nc3ccccc3c(=O)[nH]2)c1 | -3.85 | 0.58 µM [falling, single point] | – |
| CC(/C=N/NC(=S)Nc1cccc(S(=O)(=O)N(C)C)c1)c1ccccc1 (stereo unspecified) | 133 | – | 29.1 µM [rising, single point] |
| CC(=O)Nc1ccc(S(=O)(=O)Oc2ccc(Br)cc2C(=S)N2CCOCC2)cc1 | -39.3 | 0.164 µM [falling, full curve] | 1.84 µM [falling, full curve] |
| O=C1c2cccc3c([N+](=O)[O-])ccc(c23)C(=O)N1CC1CCCO1 (stereo unspecified) | -67.4 | 29.1 µM [falling, single point] | – |
| CCC(=O)OC1(C#CCOc2ccc(OC)cc2)CCN(C)CC1 | 1.34 | – | – |
| O=C(Nc1ccc(NC(=O)c2ccc(S(=O)(=O)c3ccccc3)cc2)cc1)c1ccccc1 | -83.6 | 18.4 µM [falling, partial curve] | 23.1 µM [falling, partial curve, poor fit] |
| C=CCOc1ccc(/C=C/C(=O)N2CCCN(S(=O)(=O)c3c(C)noc3C)CC2)cc1 | 75.5 | – | 20.6 µM [rising, single point] |
| COc1ccc(/C=N\NC(=O)c2cc(OCC(F)(F)F)ccc2OCC(F)(F)F)cc1 | -9.4 | 0.58 µM [rising, single point] | – |
